Experimental findings from article PMC3393671 are described below.

Results are given in words; binding and its absence hold for the method and conditions named. Some entries that bind do so weakly or less than the wild type. Where a sequence is shown, tags or fusion partners need not be part of it.

In the assay the target is T1, Irga6 (GST tag cleaved off) (mouse) (UniProt Q9QZ85).
T1 sequence: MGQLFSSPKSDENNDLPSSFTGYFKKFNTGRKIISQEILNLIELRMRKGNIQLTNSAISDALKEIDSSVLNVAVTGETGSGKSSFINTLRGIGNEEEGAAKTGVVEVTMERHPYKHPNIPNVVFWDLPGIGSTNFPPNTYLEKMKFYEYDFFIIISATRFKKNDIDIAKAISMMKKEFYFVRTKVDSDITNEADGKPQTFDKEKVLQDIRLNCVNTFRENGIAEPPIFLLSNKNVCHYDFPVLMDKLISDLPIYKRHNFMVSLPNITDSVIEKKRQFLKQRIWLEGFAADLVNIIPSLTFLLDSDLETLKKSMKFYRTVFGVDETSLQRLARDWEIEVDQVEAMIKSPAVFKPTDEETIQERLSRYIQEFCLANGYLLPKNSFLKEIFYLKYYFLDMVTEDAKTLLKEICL
Nature of the assay: dynamic light scattering; GTP-dependent oligomerization of Irga6 with ROP5BIII; unpublished data.

Consider ROP5BIII (from UniProt F2YGR7 25-549), for which the binding entry is “binds”.
